Measurements reported in patent US6617118B2, “Monoclonal antibody for analysis and clearance of polyethylene glycol and polyethylene glycol-modified molecules” (priority 1999, dated 2003).

Tested on: immobilized AGP3
Experiment: AGP3 sandwich ELISA (AGP3 capture, AGP3-biotin detection)
Assay type: binding

B1: βG-pPEG: β-glucuronidase modified with pPEG (conjugate, UniProt P05804 1-603, looked up)
Beta-glucuronidase: MLRPVETPTREIKKLDGLWAFSLDRENCGIDQRWWESALQESRAIAVPGSFNDQFADADIRNYAGNVWYQREVFIPKGWAGQRIVLRFDAVTHYGKVWVNNQEVMEHQGGYTPFEADVTPYVIAGKSVRITVCVNNELNWQTIPPGMVITDENGKKKQSYFHDFFNYAGIHRSVMLYTTPNTWVDDITVVTHVAQDCNHASVDWQVVANGDVSVELRDADQQVVATGQGTSGTLQVVNPHLWQPGEGYLYELCVTAKSQTECDIYPLRVGIRSVAVKGEQFLINHKPFYFTGFGRHEDADLRGKGFDNVLMVHDHALMDWIGANSYRTSHYPYAEEMLDWADEHGIVVIDETAAVGFNLSLGIGFEAGNKPKELYSEEAVNGETQQAHLQAIKELIARDKNHPSVVMWSIANEPDTRPQGAREYFAPLAEATRKLDPTRPITCVNVMFCDAHTDTISDLFDVLCLNRYYGWYVQSGDLETAEKVLEKELLAWQEKLHQPIIITEYGVDTLAGLHSMYTDMWSEEYQCAWLDMYHRVFDRVSAVVGEQVWNFADFATSQGILRVGGNKKGIFTRDRKPKSAAFLLQKRWTGMNFGEKPQQGGKQ
modifications: pPEG modified
amount of PEG corresponding to lowest detected concentration: 500 µg
amount of βG-pPEG corresponding to lowest detected concentration: 2.6 fmol
lowest concentration detected by the assay (in PBS): ≤ 15 mg/mL
